From paper PMC6594648
Read-outs that look alike come from different tables or passages of the source. Results are given in words; binding and its absence hold for the method and conditions named. In cells and extracts the contact can be indirect. Here binding means that the protein was enriched with, or labelled near, the bait; the list need not be complete.

Chains of the proteins cited; added tags and fusions are not shown. Residues count along the entry.
UniProt P10221: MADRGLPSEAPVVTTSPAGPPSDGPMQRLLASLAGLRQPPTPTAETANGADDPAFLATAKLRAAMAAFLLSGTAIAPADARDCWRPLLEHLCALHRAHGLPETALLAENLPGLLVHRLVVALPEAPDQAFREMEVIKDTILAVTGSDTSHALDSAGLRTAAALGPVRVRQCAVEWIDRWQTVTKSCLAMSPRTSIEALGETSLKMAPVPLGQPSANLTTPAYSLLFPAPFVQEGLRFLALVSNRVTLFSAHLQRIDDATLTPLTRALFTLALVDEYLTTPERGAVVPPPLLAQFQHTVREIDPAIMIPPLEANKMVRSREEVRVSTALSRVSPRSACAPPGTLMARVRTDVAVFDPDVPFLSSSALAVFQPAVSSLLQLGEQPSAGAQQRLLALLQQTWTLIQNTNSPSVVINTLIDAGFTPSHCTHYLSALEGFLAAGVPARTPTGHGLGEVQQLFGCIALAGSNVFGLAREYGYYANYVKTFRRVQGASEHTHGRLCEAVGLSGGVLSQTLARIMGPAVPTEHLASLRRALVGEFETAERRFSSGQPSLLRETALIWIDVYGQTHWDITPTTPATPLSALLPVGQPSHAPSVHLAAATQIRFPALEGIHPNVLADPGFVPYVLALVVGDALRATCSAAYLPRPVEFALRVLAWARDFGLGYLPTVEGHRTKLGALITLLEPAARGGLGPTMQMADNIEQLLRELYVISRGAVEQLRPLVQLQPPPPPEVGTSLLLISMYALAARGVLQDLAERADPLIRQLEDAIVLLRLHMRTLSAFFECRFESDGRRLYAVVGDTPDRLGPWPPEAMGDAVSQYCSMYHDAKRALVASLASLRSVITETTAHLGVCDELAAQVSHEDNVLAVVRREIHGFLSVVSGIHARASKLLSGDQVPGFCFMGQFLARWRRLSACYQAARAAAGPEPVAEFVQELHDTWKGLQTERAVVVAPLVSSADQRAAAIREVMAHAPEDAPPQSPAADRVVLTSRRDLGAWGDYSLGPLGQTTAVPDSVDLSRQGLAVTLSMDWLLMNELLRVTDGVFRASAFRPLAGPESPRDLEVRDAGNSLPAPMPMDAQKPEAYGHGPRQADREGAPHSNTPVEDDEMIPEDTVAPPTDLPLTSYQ
UniProt P04488, residues 21-550: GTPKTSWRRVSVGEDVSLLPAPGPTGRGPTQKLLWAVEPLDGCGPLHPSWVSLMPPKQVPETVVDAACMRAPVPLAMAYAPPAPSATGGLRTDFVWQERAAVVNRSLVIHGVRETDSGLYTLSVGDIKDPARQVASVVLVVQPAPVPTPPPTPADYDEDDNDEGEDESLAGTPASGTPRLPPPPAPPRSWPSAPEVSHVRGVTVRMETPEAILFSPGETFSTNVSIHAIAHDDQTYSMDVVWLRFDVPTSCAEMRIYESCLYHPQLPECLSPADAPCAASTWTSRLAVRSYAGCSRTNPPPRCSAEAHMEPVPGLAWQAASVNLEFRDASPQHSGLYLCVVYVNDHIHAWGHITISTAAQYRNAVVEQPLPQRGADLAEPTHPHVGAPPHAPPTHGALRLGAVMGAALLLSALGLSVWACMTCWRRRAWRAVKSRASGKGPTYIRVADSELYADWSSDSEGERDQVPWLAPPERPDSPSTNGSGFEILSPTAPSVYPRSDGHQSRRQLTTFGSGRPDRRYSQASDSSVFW

Assays:
[1] = molecular target: pUL37 tagged with enhanced green fluorescent protein (pUL37-EGFP) (herpes simplex virus type 1 (HSV1), strain 17+) (UniProt P10221); test: affinity purification with mass spectrometry; pUL37-EGFP isolated with anti-GFP antibodies on magnetic beads from cytoplasmic lysates of HSV1-infected primary human fibroblasts at 8 and 20 HPI; EGFP-only virus as control (20 HPI); 20 mM HEPES-KOH pH 7.4, 0.11 M potassium acetate, 250 mM NaCl, 0.5% NP-40, 0.1% Tween 20; TMT quantification, two replicates; enrichment of >=2-fold over the control counted as specific
[2] = molecular target: pUL37 tagged with enhanced green fluorescent protein (pUL37-EGFP) (herpes simplex virus type 1 (HSV1), strain 17+) (UniProt P10221); test: as above; remark: listed apart in the source

Molecule | binding [1] | binding [2]
pUS8 (glycoprotein E, gE) (from UniProt P04488 21-550) | binds | –
pUS10 (protein, UniProt P06486 1-312) MIKRRGNVEIRVYYESVRTLRSRSHLKPSDRQQSPGHRVFPGSPGFRDHPENLGNPEYRELPETPGYRVTPGIHDNPGLPGSPGLPGSPGLPGSPGPHAPPANHVRLAGLYSPGKYAPLASPDPFSPQHGAYARARVGIHTAVRVPPTGSPTHTHLRQDPGDEPTSDDSGLYPLDARALAHLVMLPADHRAFFRTVVEVSRMCAANVRDPPPPATGAMLGRHARLVHTQWLRANQETSPLWPWRTAAINFITTMAPRVQTHRHMHDLLMACAFWCCLTHASTCSYAGLYSTHCLHLFGAFGCGDPALTPPLC | – | binds
